{"source": "patent US8871492B2", "about": "“Anti-dementia substance from Hericium erinaceum and method of extraction” (priority 2008, dated 2014)", "test_system": "NGF", "assay": "NGF content of brain regions of Aβ1-40-induced AD rats by ELISA", "format": "in vivo, Sprague-Dawley male rats", "conditions": "Donepezil 1 mg/kg; after four weeks of treatment; mean ± SD", "procedure": "The control group was injected with 5 μL of saline. […] From the fourth week after the administration, learning and memory-related behavior was assessed using the Morris Water Maze Test on ten rats arbitrarily-chosen from each group once a day for one week (from day 1 to day 6 the time to arrive at the platform is measured, and on day 7 the platform is removed and the frequency to cross (pass by) the platform location is counted). After completing the behavioral test, the rats were sacrificed. The cerebral tissues separated from half of the rats of each group were used for pathological examination, and the olfactory bulb, hippocampus, locus ceruleus, and cerebral cortex from another half were used to determine the NGF content with enzyme-linked immunosorbent assay (ELISA)."}
{"smiles": "COc1cc2c(cc1OC)C(=O)C(CC1CCN(Cc3ccccc3)CC1)C2", "note": "(stereo not shown) [Donepezil]", "values": [{"measurement": "NGF content, Cerebral cortex", "value": "6.79 ± 1.10 ng/g cranial nerve nucleus"}, {"measurement": "NGF content, Hippocampus", "value": "14.20 ± 4.14 ng/g cranial nerve nucleus"}, {"measurement": "NGF content, Locus ceruleus", "value": "3.07 ± 1.38 ng/g cranial nerve nucleus"}, {"measurement": "NGF content, Olfactory bulb", "value": "10.11 ± 2.10 ng/g cranial nerve nucleus"}]}
